Reference: patent US9518974B2, “Sensor system for detecting organophosphorus residues by inducing coagulation of gold nanoparticles” (priority 2014, dated 2016)
Like-named read-outs stand apart in the source and are kept apart here.

Columns and labels:
[1] = Quantifying organophosphorus pesticide with gold nanoparticles and EGFP; settings: for Reliability: present method vs HPLC
[2] = not given; remark: listed apart in the source
[3] = Quantifying organophosphorus pesticide using HPLC

SMILES	Reliability ([1]; sample 1, added 0.085 ppm) [%]	Reliability ([1]; sample 2, added 0.170 ppm) [%]	Reliability ([1]; sample 3, added 0.340 ppm) [%]	the present method mean ± SD ([1]; sample 1, added 0.085 ppm) [ppm]	the present method mean ± SD ([1]; sample 2, added 0.170 ppm) [ppm]	the present method mean ± SD ([1]; sample 3, added 0.340 ppm) [ppm]	absorbance at 670 nm (compound 1 ppm in 10% methanol, 10 nM gold nanoparticles, 0.3 mM imidazole 2:1:1)	peak position of the gold nanoparticles absorption spectrum (diazinon 1 ppm + 10 nM gold nanoparticles 2:1, no imidazole) [nm]	new peak in absorption spectrum (pesticide 1 ppm, 0.3 mM imidazole, 10 nM gold nanoparticles 2:1:1) [nm]	peak position of the gold nanoparticles absorption spectrum ([2]; diazinon 1 ppm + 10 nM gold nanoparticles 2:1, no EGFP) [nm]	new peak in absorption spectrum ([2]; pesticide 1 ppm, 5 μg/mL EGFP, 10 nM gold nanoparticles 2:1:1) [nm]	pH of greatest difference in absorbance at 670 nm ([2]; presence vs absence of pesticide, pH 1.4 to 12.4, EGFP)	HPLC mean ± SD ([3]; Table 1, sample 1, added 0.080 ppm) [ppm]	HPLC mean ± SD ([3]; Table 1, sample 2, added 0.170 ppm) [ppm]	HPLC mean ± SD ([3]; Table 1, sample 3, added 0.300 ppm) [ppm]	HPLC mean ± SD ([3]; Table 2, sample 1, added 0.085 ppm) [ppm]	HPLC mean ± SD ([3]; Table 2, sample 2, added 0.170 ppm) [ppm]	HPLC mean ± SD ([3]; Table 2, sample 3, added 0.340 ppm) [ppm]	shift of the peak of gold nanoparticle absorption spectrum (0.3 mM imidazole + 10 nM gold nanoparticles 1:1, no pesticide)
CCOP(=S)(OCC)Oc1cc(C)nc(C(C)C)n1 [diazinon]	151.6	104.7	94.3	0.124 ± 0.015	0.156 ± 0.010	0.248 ± 0.012	≥ 0.41	520	670	520	670	8.4	0.082 ± 0.002	0.149 ± 0.004	0.263 ± 0.064	0.082 ± 0.002	0.149 ± 0.002	0.263 ± 0.014	
c1c[nH]cn1 [imidazole]																			the shift of the peak was not observed
